The list is a part of this screen's results and no random one: it is rich in T/C values a quarter to a half above the control, in often repeated tests (any T/C) and in doses without a T/C. Other doses and runs of a compound stand elsewhere. T/C gives the treated animals as a percentage of the vehicle group. Some entries give survivors of the animals treated and no T/C: the source holds a T/C of zero for them, seemingly a mark for toxic or unscored doses. Some doses without a T/C left all or most animals alive at the check, yet need not have been tolerated: the source hardly ever lists a survival T/C far under the control, and the zero likely stands for such cases as well. Counts of survivors are from the toxicity check (mostly the fifth day) where no day follows; animals may have died later. Schedule codes are those of the source, read here as Q, the interval in days (D) or hours (H), X, the number of doses. Some schedule codes hold Z or #, which are not explained here. Some entries hold several experiments; the results are listed from low to high. Where survival is the endpoint, the PubChem record calls one and a half times the control and up active, and a quarter to a half above the control has no call in these data; cut-offs in other NCI protocols can differ.

This experiment concerns L1210 leukemia ip in BDF1 mice, survival T/C. The experiment in a line: NCI In Vivo Anticancer Drug Screen. Data for tumor model L1210 Leukemia (intraperitoneal) in B6D2F1 (BDF1) mice. The following applies: higher T/C = longer survival.
The mark [1] stands for this setting: T/C endpoint: mean survival time, dose: 100.0 mg/kg/injection, schedule: Q04DX003 (ip), vehicle: saline with Tween-80.
The mark [2] stands for this setting: T/C endpoint: mean survival time, dose: 200.0 mg/kg/injection, schedule: Q04DX003 (ip), vehicle: saline with Tween-80.
The mark [3] stands for this setting: T/C endpoint: mean survival time, dose: 400.0 mg/kg/injection, schedule: Q04DX003 (ip), vehicle: saline with Tween-80.
[4] abbreviates: T/C endpoint: mean survival time, dose: 400.0 mg/kg/injection, schedule: Q01DX001 (ip), vehicle: saline.
Where [5] appears, read: T/C endpoint: mean survival time, dose: 150.0 mg/kg/injection, schedule: Q01DX001 (ip), vehicle: saline.
The mark [6] stands for this setting: T/C endpoint: mean survival time, dose: 300.0 mg/kg/injection, schedule: Q01DX001 (ip), vehicle: saline.
Where [7] appears, read: T/C endpoint: mean survival time, dose: 200.0 mg/kg/injection, schedule: Q04DX003 (ip), vehicle: Klucel (hydroxypropylcellulose) (HPC).
Where [8] appears, read: T/C endpoint: mean survival time, dose: 400.0 mg/kg/injection, schedule: Q01DX009 (ip), vehicle: Klucel (hydroxypropylcellulose) (HPC).

As for `N#Cc1ccccc1C#N`, the survivor count by setting is: (T/C endpoint: mean survival time, dose: 100.0 mg/kg/injection, schedule: Q01DX001 (ip), vehicle: other) 0 of 6; under setting [1], 0 of 3; (T/C endpoint: mean survival time, dose: 200.0 mg/kg/injection, schedule: Q01DX001 (ip), vehicle: other) 0 of 6; under setting [2], 0 of 3; (T/C endpoint: mean survival time, dose: 400.0 mg/kg/injection, schedule: Q01DX001 (ip), vehicle: other) 0 of 6; under setting [3], 0 of 3.

Take `CNC(C)(C)C(SS)c1ccc(Cl)cc1` (stereo not given): the survivor count reads like this: under setting [1], 3 of 6; under setting [2], 2 of 6; under setting [3], 0 of 6.

As for `CCc1c(Nc2ccc(C)cc2)[nH]c(N)nc1=S`, the survivor count (T/C endpoint: mean survival time, dose: 100.0 mg/kg/injection, schedule: Q01DX Z (ip), vehicle: methylcellulose (MC)) is given as 6 of 6.

Take `Cc1c2oc3c(C)ccc(C(=O)NC4C(=O)NC(C(C)C)C(=O)N5CCCC5C(=O)N(C)CC(=O)N(C)C(C(C)C)C(=O)OC4C)c3nc-2c(C(=O)NC2C(=O)NC(C(C)C)C(=O)N3CC(=O)CC3C(=O)N(C)CC(=O)N(C)C(C(C)C)C(=O)OC2C)c(N)c1=O` (stereo not given): the T/C by setting is: (T/C endpoint: median survival time, dose: 50.0 micrograms/kg/injection, schedule: Q01DX001 (ip), vehicle: water) 126 % of control; (T/C endpoint: median survival time, dose: 75.0 micrograms/kg/injection, schedule: Q04DX003 (ip), vehicle: water) 129 % of control; (T/C endpoint: median survival time, dose: 100.0 micrograms/kg/injection, schedule: Q01DX001 (ip), vehicle: water) 126 % of control. Further, the survivor count reads like this: (T/C endpoint: median survival time, dose: 50.0 micrograms/kg/injection, schedule: Q01DX009 (ip), vehicle: water) 9 of 10; (T/C endpoint: median survival time, dose: 100.0 micrograms/kg/injection, schedule: Q01DX009 (ip), vehicle: water) 0 of 10; (T/C endpoint: median survival time, dose: 150.0 micrograms/kg/injection, schedule: Q04DX003 (ip), vehicle: water) 10 of 10; (T/C endpoint: median survival time, dose: 200.0 micrograms/kg/injection, schedule: Q01DX001 (ip), vehicle: water) 2 of 10; (T/C endpoint: median survival time, dose: 300.0 micrograms/kg/injection, schedule: Q04DX003 (ip), vehicle: water) 0 of 10; (T/C endpoint: median survival time, dose: 400.0 micrograms/kg/injection, schedule: Q01DX001 (ip), vehicle: water) 1 of 10. Also, the survivor count is listed as 2 of 10 (T/C endpoint: median survival time, dose: 600.0 micrograms/kg/injection, schedule: Q04DX003 (ip), vehicle: water); 1 of 10 (T/C endpoint: median survival time, dose: 800.0 micrograms/kg/injection, schedule: Q01DX001 (ip), vehicle: water); 1 of 10 (T/C endpoint: median survival time, dose: 1600.0 micrograms/kg/injection, schedule: Q01DX001 (ip), vehicle: water).

With `CC(C)(N)CCC(C)(C)NCCCN`, the survivor count (T/C endpoint: mean survival time, dose: 400.0 mg/kg/injection, schedule: Q01DX009 (ip), vehicle: water) is given as 1 of 6.

For `C=COC(=O)NC(CCC(=O)OC)C(=O)O` (stereo not given), the survivor count under setting [4] is listed as 0 of 6.

For the molecule `CCN(CC)CCCNC(c1ccc(Cl)cc1)C(Cl)(Cl)Cl` (stereo not given), the survivor count by setting is: under setting [5], 2 of 6; under setting [6], 0 of 6.

With `CC[CH2][Sn]([CH2]CC)([CH2]CC)[CH2]CC`, the survivor count (T/C endpoint: mean survival time, dose: 200.0 mg/kg/injection, schedule: Q01DX001 (ip), vehicle: carboxymethylcellulose (CMC)) was 3 of 4 and the survivor count (T/C endpoint: mean survival time, dose: 400.0 mg/kg/injection, schedule: Q01DX001 (ip), vehicle: carboxymethylcellulose (CMC)) is reported as 0 of 4.

In the case of `S=C=NCc1cccc(CN=C=S)c1`, the survivor count (T/C endpoint: mean survival time, dose: 12.5 mg/kg/injection, schedule: Q01DX009 (ip), vehicle: saline with Tween-80) is 3 of 6; the survivor count (T/C endpoint: mean survival time, dose: 25.0 mg/kg/injection, schedule: Q01DX009 (ip), vehicle: saline with Tween-80) is listed as 1 of 6; the survivor count (T/C endpoint: mean survival time, dose: 100.0 mg/kg/injection, schedule: Q04DX003 (ip), vehicle: Klucel (hydroxypropylcellulose) (HPC)) is on record as 0 of 6; the survivor count under setting [7] is listed as 0 of 6; the survivor count (T/C endpoint: mean survival time, dose: 400.0 mg/kg/injection, schedule: Q04DX003 (ip), vehicle: Klucel (hydroxypropylcellulose) (HPC)) is 0 of 6.

Consider `C/C(=C\Cl)CN(C)S(=O)(=O)c1ccc(Br)cc1`, for which the survivor count under setting [8] is 1 of 6.

For the molecule `Nc1nc(=O)n(CC(=O)c2cccs2)cc1F`, the survivor count was 1 of 6 and 3 of 6 (T/C endpoint: mean survival time, dose: 200.0 mg/kg/injection, schedule: Q01DX009 (ip), vehicle: saline with Tween-80); 0 of 6 (T/C endpoint: mean survival time, dose: 400.0 mg/kg/injection, schedule: Q01DX009 (ip), vehicle: saline with Tween-80).

As for `O=C1CCCC[CH]1[Hg][Cl]` (stereo not given), the survivor count runs as follows: (T/C endpoint: mean survival time, dose: 10.0 mg/kg/injection, schedule: Q01DX001 (ip), vehicle: saline) 0 of 6; (T/C endpoint: mean survival time, dose: 20.0 mg/kg/injection, schedule: Q01DX001 (ip), vehicle: saline) 0 of 6; (T/C endpoint: mean survival time, dose: 40.0 mg/kg/injection, schedule: Q01DX001 (ip), vehicle: saline) 0 of 6; (T/C endpoint: mean survival time, dose: 75.0 mg/kg/injection, schedule: Q01DX001 (ip), vehicle: saline) 0 of 6; under setting [5], 0 of 6; under setting [6], 0 of 6.

Turning to `COc1ccc(C=NCCN=Cc2ccc(OC)cc2)cc1`, under setting [7], the survivor count was 6 of 6.

Consider `Cc1ccc([N+](=O)[O-])c(OC(=O)Nc2ccc(Cl)c(Cl)c2)c1`, for which the survivor count under setting [7] is listed as 6 of 6.

On to `CC/C=C(\C)C1(CCC)C(=O)NC(=O)NC1=O`, for which the survivor count under setting [6] is 2 of 6.

For the molecule `O=C1CCC(CC2CCCCC2)CC1`, under setting [3], the T/C was 127 % of control.

`O=C(/C=C\c1ccc([N+](=O)[O-])cc1)NCCCCNC(=O)/C=C/c1ccc([N+](=O)[O-])cc1`: the survivor count (T/C endpoint: mean survival time, dose: 200.0 mg/kg/injection, schedule: Q01DX001 (ip), vehicle: saline) is reported as 6 of 6 and the survivor count under setting [4] is reported as 6 of 6.

On to `Cn1c(=O)c2[nH]c(Br)nc2n(C)c1=O`, for which, under setting [8], the survivor count is recorded as 3 of 6.

Take `CCCCCCCCCCCCN=c1nc(N)ccn1C1OC(CO)C(O)C1O` (stereo not given): the survivor count reads like this: (T/C endpoint: mean survival time, dose: 50.0 mg/kg/injection, schedule: Q01DX005 (ip), vehicle: saline) 0 of 7; (T/C endpoint: mean survival time, dose: 100.0 mg/kg/injection, schedule: Q01DX005 (ip), vehicle: saline) 0 of 6; (T/C endpoint: mean survival time, dose: 200.0 mg/kg/injection, schedule: Q01DX005 (ip), vehicle: saline) 0 of 6.

With `CC1CN=C(c2ccc(NC(=O)c3ccc(C(=O)Nc4ccc(C5=NCC(C)CN5)cc4)nc3)cc2)NC1` (stereo not given), the T/C (T/C endpoint: mean survival time, dose: 2.0 mg/kg/injection, schedule: Q01DX015 (ip), vehicle: water) was 147 % of control. Further, the survivor count is on record as 3 of 6 (T/C endpoint: mean survival time, dose: 8.0 mg/kg/injection, schedule: Q01DX015 (ip), vehicle: water); 2 of 6 (T/C endpoint: mean survival time, dose: 10.0 mg/kg/injection, schedule: Q01DX015 (ip), vehicle: water); 0 of 6 (T/C endpoint: mean survival time, dose: 16.0 mg/kg/injection, schedule: Q01DX015 (ip), vehicle: water); 0 of 6 (T/C endpoint: mean survival time, dose: 20.0 mg/kg/injection, schedule: Q01DX015 (ip), vehicle: water); 0 of 6 (T/C endpoint: mean survival time, dose: 31.0 mg/kg/injection, schedule: Q01DX015 (ip), vehicle: water); 0 of 6 (T/C endpoint: mean survival time, dose: 40.0 mg/kg/injection, schedule: Q01DX015 (ip), vehicle: water). Moreover, the survivor count (T/C endpoint: mean survival time, dose: 62.0 mg/kg/injection, schedule: Q01DX015 (ip), vehicle: water) is 0 of 6; the survivor count (T/C endpoint: mean survival time, dose: 125.0 mg/kg/injection, schedule: Q01DX015 (ip), vehicle: water) is 0 of 6; the survivor count (T/C endpoint: mean survival time, dose: 250.0 mg/kg/injection, schedule: Q01DX015 (ip), vehicle: water) is reported as 0 of 6.

As for `COc1ccc(CC2(C#N)c3ccccc3C=CN2C(=O)c2ccccc2)c([N+](=O)[O-])c1OC` (stereo not given), the survivor count (T/C endpoint: mean survival time, dose: 400.0 mg/kg/injection, schedule: Q04DX002 (ip), vehicle: saline with Tween-80) is recorded as 3 of 3.

As for `O=S1(=O)CCCC1C(Cl)c1ccccc1` (stereo not given), the survivor count was 2 of 6 (T/C endpoint: mean survival time, dose: 200.0 mg/kg/injection, schedule: Q01DX001 (ip), vehicle: Klucel (hydroxypropylcellulose) (HPC)) and 1 of 6 (T/C endpoint: mean survival time, dose: 400.0 mg/kg/injection, schedule: Q01DX001 (ip), vehicle: Klucel (hydroxypropylcellulose) (HPC)).

Source of the values: PubChem BioAssay AID248 (DTP/NCI, 2004).
